Earlier results as cited in patent publication EP3833345B1, “SMALL MOLECULE-INHIBITORS OF 6-PHOSPHOFRUCTO-1-KINASE FOR REDUCING LACTATE GENERATION BY CANCER CELLS” (Kemijski Institut, priority 2018, dated 2020).
At least one compound was matched to its structure with a doubt left.

Test system: several mouse models and human-derived tumours
Conditions: cited from earlier work

**Q.** With `O=C(/C=C/c1ccc2ccc(C(F)(F)F)cc2n1)c1ccncc1` [PFK158] as the molecule, how does the growth inhibition read?
**A.** Its growth inhibition is -80%.
